For orientation: IC50 means the midpoint of a concentration-inhibition curve. A lower IC50 goes with inhibition by little substance.

Amino acid sequences for entries named in this document (tags omitted). Residues count along the entry.
UniProt P06865, 89-529 limits assumed: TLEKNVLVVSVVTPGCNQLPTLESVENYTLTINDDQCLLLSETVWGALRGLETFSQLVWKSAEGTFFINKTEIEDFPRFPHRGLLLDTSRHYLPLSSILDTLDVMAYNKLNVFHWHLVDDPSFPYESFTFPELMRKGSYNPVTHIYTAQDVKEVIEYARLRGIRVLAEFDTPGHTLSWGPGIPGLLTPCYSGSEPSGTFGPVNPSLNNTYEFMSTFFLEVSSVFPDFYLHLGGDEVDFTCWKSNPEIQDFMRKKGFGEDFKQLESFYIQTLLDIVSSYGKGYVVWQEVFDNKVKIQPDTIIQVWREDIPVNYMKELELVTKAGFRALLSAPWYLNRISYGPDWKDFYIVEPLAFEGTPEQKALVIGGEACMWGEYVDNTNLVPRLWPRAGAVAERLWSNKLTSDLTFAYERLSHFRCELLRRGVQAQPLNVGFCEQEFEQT
UniProt P06865, 23-74 partner limits assumed: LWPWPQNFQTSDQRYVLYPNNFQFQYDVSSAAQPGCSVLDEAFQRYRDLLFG
UniProt P07686, 122-311 limits assumed: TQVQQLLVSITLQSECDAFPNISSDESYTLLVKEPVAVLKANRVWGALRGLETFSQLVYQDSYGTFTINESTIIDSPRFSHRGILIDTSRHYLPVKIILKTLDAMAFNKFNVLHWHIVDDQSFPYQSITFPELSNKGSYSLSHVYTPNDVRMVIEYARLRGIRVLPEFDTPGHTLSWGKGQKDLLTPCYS
UniProt P07686, 315-556 limits assumed: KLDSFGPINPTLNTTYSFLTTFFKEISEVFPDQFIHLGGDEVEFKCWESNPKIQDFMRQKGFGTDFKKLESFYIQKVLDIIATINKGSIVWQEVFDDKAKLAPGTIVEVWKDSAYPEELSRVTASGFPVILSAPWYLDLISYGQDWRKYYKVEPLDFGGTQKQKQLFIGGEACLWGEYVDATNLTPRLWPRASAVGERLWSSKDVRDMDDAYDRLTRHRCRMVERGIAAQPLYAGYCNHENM
UniProt P07686, 50-107 partner limits assumed: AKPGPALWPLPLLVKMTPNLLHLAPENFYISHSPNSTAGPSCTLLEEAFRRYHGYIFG

The structures appear in SMILES notation. The match of structure and compound is tentative.

The values below come from patent US7488721B2, “Real time methylumbelliferone-based assay” (McMaster University, priority 2004, dated 2009).

Assay [1] addresses Human N-acetyl-β-hexosaminidase A (HexA) (Homo sapiens, UniProt P06865+P07686). The conditions noted are these: purified HexA 100 ng/mL, MUG 58.8 μM, pH 4.3.
Assay [2] relates to hexosaminidase activity in ISD cells. Description: Endpoint MUG/MUP assay of ISD cells treated with screen hits (Example 5). The conditions noted are these: ISD cells grown 2-5 days with compound.

The molecule `O=C(C(C(=O)N1CCc2ccccc21)c1ccccc1)N1CCc2ccccc21` yielded an IC50 in assay [1] of 34 µM. In addition, in assay [2], the “enhancement of hexosaminidase activity” value is “good enhancement of hexosaminidase activity”.
